# Measurements as given in PubChem BioAssay AID2551 (National Center for Advancing Translational Sciences (NCATS), 2010).
# Protein sequences, listed by entry. Tags and fused reporters are not part of them. Lines headed by an entry give the natural chain unless they say otherwise; changes in a name come on top.
# UniProt P51450: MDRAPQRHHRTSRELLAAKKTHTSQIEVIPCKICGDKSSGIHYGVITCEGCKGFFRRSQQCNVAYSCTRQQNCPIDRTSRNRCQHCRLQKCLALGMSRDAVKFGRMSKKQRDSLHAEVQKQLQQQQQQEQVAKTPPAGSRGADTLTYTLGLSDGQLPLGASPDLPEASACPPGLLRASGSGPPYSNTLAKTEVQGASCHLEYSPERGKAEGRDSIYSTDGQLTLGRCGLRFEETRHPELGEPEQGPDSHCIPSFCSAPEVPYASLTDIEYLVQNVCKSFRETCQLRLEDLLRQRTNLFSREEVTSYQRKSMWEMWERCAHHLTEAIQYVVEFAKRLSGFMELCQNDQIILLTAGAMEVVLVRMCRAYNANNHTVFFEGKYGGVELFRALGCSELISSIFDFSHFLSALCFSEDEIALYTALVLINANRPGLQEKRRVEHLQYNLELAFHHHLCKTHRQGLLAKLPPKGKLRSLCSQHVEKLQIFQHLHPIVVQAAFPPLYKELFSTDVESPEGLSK
# Among all 310,000 compounds or so, about 17,000 (5.5%) were called active. Inconclusive results, whose numbers are uncertain, are shown with a selection of clear calls. The call rests on the fitted dose curve; in most records, active means well fitted inhibition curve with a large enough effect; inconclusive means small, poorly fitted or top-dose-only effect, or effect the other way; inactive means no such curve, though single readings can be large or run the other way. Potencies of inconclusive entries are doubtful fits and often do not repeat.
# Target: Nuclear receptor ROR-gamma (Mus musculus) (UniProt P51450)
# Experiment: qHTS for inhibitors of ROR gamma transcriptional activity; further: nearly all actives have a fitted effect of over 60% in size
# Settings: Drosophila S2 Gal4-RORgamma UAS-luciferase reporter, 20 h; series mostly up to 53.6 µM
# Summary of the method: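 A Gal4/UAS one-hybrid system in insect cells: metallothionein-promoter Gal4–ROR gamma fusion plus Photinus luciferase reporter. Copper sulfate 700 uM final, 20 hr ambient incubation, luminescent detection after 10 min with reagent.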
# Potency means the concentration at half of the fitted maximal effect.
row,Compound,Potency
1,O=S(=O)(Cc1ccccc1)NCc1ccccn1,"inconclusive: 15.8 µM [inhibitor, single point]"
2,CCOc1ccc2c(c1)C(c1ccc(C)cc1)=NNC(c1ccc(C)cc1)=N2,"inconclusive: 3.98 µM [inhibitor, partial curve, poor fit]"
3,O=C(Cc1ccccc1F)Nc1nc(-c2ccc(F)c(F)c2)cs1,"inconclusive: 12.6 µM [activator, partial curve]"
4,CCOC(=O)C1=C(C)C(c2ccc(OC)cc2)NC(=S)N1 (configuration not stated),"inconclusive: 12.6 µM [inhibitor, single point]"
5,COc1ccc(S(=O)(=O)N2CCN(C/C=C/c3ccccc3)CC2)cc1F,"inconclusive: 10 µM [activator, partial curve]"
6,O=C(NCCCN1CCOCC1)c1ccc(Cl)cc1[N+](=O)[O-],inactive
7,COC(=O)c1ccc(NC(=S)NC(=O)C2CCC2)cc1,active: 11.2 µM
8,COc1ccc(OC)c(-c2cc(C(=O)Nc3c(C)nn(Cc4ccccc4)c3C)no2)c1,"inconclusive: 15.8 µM [activator, partial curve]"
9,CN(C)c1ccc(-c2nc(N3CCNCC3)c3ccccc3n2)cc1,"inconclusive: 31.6 µM [inhibitor, single point]"
10,Cc1ccc(C(=O)N/C(=C/c2ccco2)C(=O)NCC2CCCO2)cc1 (configuration not stated),inactive
11,S=C(NCC1CCCO1)Nc1cccc(Cl)c1 (configuration not stated),active: 15.8 µM
12,CC12CCC(C(=O)N3CCN(c4ncccn4)CC3)(c3nc4ccccc4nc31)C2(C)C (configuration not stated),"inconclusive: 14.1 µM [activator, single point]"
13,COC(=O)c1cc(OC)c(OC)cc1NC(=S)Nc1cccc(Cl)c1,active: 3.98 µM
14,CC(C)Cc1nnc(NC(=O)c2cc(-c3ccccc3)nc3ccccc23)s1,active: 4.47 µM
15,Cc1cccc(NC(=O)CNC(=O)COc2cc(F)ccc2[N+](=O)[O-])c1C,inactive
16,CCCn1c(=N)c(C(=O)NC2CCCC2)cc2c(=O)n3cccc(C)c3nc21,"inconclusive: 35.5 µM [activator, partial curve]"
17,COc1cc2[nH]cc(C(=O)NCc3ccccc3)c(=O)c2cc1OC,inactive
18,CCC(C)c1ccc(O)c(NC(=O)c2cccnc2)c1 (configuration not stated),inactive
19,O=C(c1ccco1)N1C(=O)c2cccc3cccc1c23,inactive
20,O=C(NC(=S)N1CCN(c2ccc([N+](=O)[O-])cc2)CC1)c1ccccc1F,active: 0.562 µM
21,Cc1ccc(NC(=O)COC(=O)c2ccc3c(c2)NC(=O)C2CCCN32)cc1C (configuration not stated),inactive
22,O=C1Nc2ccccc2S/C1=C/Nc1cccc(Cl)c1,"inconclusive: 35.5 µM [inhibitor, single point]"
23,NNC(=O)c1ccc2ccccc2n1,"inconclusive: 35.5 µM [inhibitor, single point]"
24,COc1ccc(CNC(=O)CNC(=O)[C@@H]2Cc3ccccc3CN2)cc1,inactive
25,Nc1nc2n(n1)C(c1cccs1)CC(c1ccc(F)cc1)N2 (configuration not stated),inactive
26,CCCCCC1CC(CC(=O)Nc2ccc([N+](=O)[O-])cc2)C(=O)O1 (configuration not stated),"inconclusive: 5.62 µM [activator, full curve]"

row,Compound,Potency
1,c1ccc2nc(-c3ccc(-n4ccnc4)cc3)ccc2c1,"inconclusive: 12.6 µM [inhibitor, single point]"
2,COc1ccc(NC(=O)CN2CCC(C(=O)c3ccc(C)cc3)CC2)c(OC)c1,"inconclusive: 8.91 µM [activator, partial curve]"
3,COc1ccc(C(C(=O)NCc2ccccc2)N(Cc2ccco2)C(=O)c2snc(C(N)=O)c2N)cc1OC (configuration not stated),inactive
4,CCOC(=O)Cc1csc(NC(=O)c2sc3nc4cc(C)ccc4cc3c2N)n1,"inconclusive: 15.8 µM [inhibitor, single point]"
5,Clc1ncnc2scc(C3COc4ccccc4O3)c12 (configuration not stated),"inconclusive: 1.26 µM [inhibitor, partial curve, poor fit]"
6,CCOC(=O)c1cc(-c2ccccc2)n(CCC(=O)NC(C)CC)c1C (configuration not stated),"inconclusive: 0.224 µM [activator, full curve]"
7,CCOc1nc(-c2ccc(Cl)cc2Cl)ccc1C#N,"inconclusive: 4.47 µM [activator, single point]"
8,COCc1nnc(NC(=O)c2ccc(S(=O)(=O)N3CCCC3)cc2)o1,active: 4.47 µM
9,O=C(/C=C/c1ccco1)NC(=S)Nc1nc(-c2ccc(Cl)cc2)cs1,active: 14.1 µM
10,CCOc1ccc(C(C)=O)cc1COC(=O)C1=COCCO1,inactive
11,CSc1ccc(S(=O)(=O)NCCCOC(C)C)cc1,"inconclusive: 14.1 µM [activator, single point]"
12,CCCn1c(=O)c2c(nc3n2CCCN3CCc2ccccc2)n(C)c1=O,"inconclusive: 0.316 µM [activator, full curve, poor fit]"
13,CC1(C)C(=O)C=C[C@]2(C)C1CC(=O)[C@]1(C)C2CC[C@@]2(C)C(c3ccoc3)OC(=O)C3O[C@@]321 (some centres not stated),"inconclusive: 3.16 µM [inhibitor, single point]"
14,COc1cccc(OC)c1OCCCCCc1c(C)n[nH]c1C,"inconclusive: 7.94 µM [inhibitor, partial curve]"
15,CC(c1ccccc1)n1cc(C(=O)NCc2ccncc2)nn1 (configuration not stated),inactive
16,COc1ccc2cc(C(=O)C3CCCN(C(=O)c4cncs4)C3)ccc2c1 (configuration not stated),inactive
17,O=C(CC1SC(=Nc2ccc(OC(F)F)cc2)N(CCN2CCOCC2)C1=O)Nc1ccc(F)cc1F (configuration not stated),"inconclusive: 14.1 µM [activator, single point]"
18,Cc1ccc(SC[C@H](CC(C)C)N2CCN(CCc3ccccc3)CCC2=O)cc1,inactive
19,COc1ccc(/C=N/NC(=O)Nc2nonc2N)cc1,"inconclusive: 7.08 µM [activator, full curve]"
20,O=C(CSc1ncn[nH]1)Nc1ccc(Br)cc1F,"inconclusive: 12.6 µM [activator, single point]"
21,COc1ccc(C(=O)O)c(O)c1OC,inactive
22,Cc1ccc2[nH]c(=O)c(CN(Cc3cccs3)Cc3nnnn3Cc3ccccc3)cc2c1,"inconclusive: 14.1 µM [activator, single point]"
23,COCCN1CCC(CNCc2cn(-c3cc(C)ccc3C)nc2-c2ccccc2)C1 (configuration not stated),"inconclusive: 35.5 µM [inhibitor, single point]"
24,COc1ccc(C(=O)NC(=S)N(C)C2CCCCC2)cc1,active: 2 µM
25,O=C(COC(=O)C1CC(=O)N(Cc2ccco2)C1)c1ccc(OC(=O)c2ccccc2)cc1 (configuration not stated),"inconclusive: 11.2 µM [inhibitor, single point]"
26,COc1cc2c(cc1NC(=O)CSc1ccc(C)cc1)oc1ccccc12,"inconclusive: 10 µM [activator, partial curve]"

row,Compound,Potency
1,COc1ccc(/C=C(/C(=O)c2cccs2)N2C=CC=CC2=C(C#N)C#N)cc1,active: 2.24 µM
2,O=C(N/N=C/c1ccc(F)cc1)c1c(O)c2ccccc2[nH]c1=O,"inconclusive: 2.82 µM [activator, full curve]"
3,O=C1CC(NCc2ccco2)C(=O)N1CCc1ccccc1 (configuration not stated),inactive
4,O=C(CCCC(=O)Nc1ccc(Br)cc1)N/N=C/c1ccccc1,"inconclusive: 15.8 µM [activator, single point]"
5,Cc1c(C(=O)NCc2cccnc2)oc2ccc(S(=O)(=O)N3CCC4(CC3)OCCO4)cc12,inactive
6,COc1ccc(-c2cc3ccccc3oc2=O)cc1NC(=O)c1ccc([N+](=O)[O-])o1,inactive
7,O=C(c1ccccc1)c1cc[n+]([O-])cc1,inactive
8,CN=CC1=C(O)CC(C)(C)CC1=O,inactive
9,O=C1/C(=C\c2cccnc2)SC(=S)N1C1CCS(=O)(=O)C1 (configuration not stated),active: 6.31 µM
10,COc1ccccc1CNc1nc(=S)[nH]c2cc(OC)c(OC)cc12,inactive
11,COc1ccccc1-c1ccc2ncnc(NC3CC3)c2c1,"inconclusive: 12.6 µM [activator, partial curve]"
12,Cc1cc(NC(=O)Cn2c(=O)n(Cc3ccccc3)c(=O)c3ccccc32)no1,"inconclusive: 35.5 µM [inhibitor, single point]"
13,N#Cc1nc(COc2ccc(Cl)cc2Cl)oc1N1CCOCC1,"inconclusive: 20 µM [activator, single point]"
14,COc1ccc(C(=O)NCc2nnc(SCC(=O)Nc3ccccc3OC)n2C)cc1,inactive
15,COc1ccc(NC(=O)N2CC3(CCN(C(=O)c4c(C)noc4C)CC3)C2)cc1,inactive
16,NC(=O)N/N=C/c1coc2ccc(O)cc2c1=O,"inconclusive: 7.08 µM [activator, full curve, poor fit]"
17,O=C(NCC1OCCc2ccccc21)c1ccc(NC(=O)c2ccc(Cl)cc2)cc1 (configuration not stated),"inconclusive: 35.5 µM [inhibitor, single point]"
18,CCCCCCN1C=C/C(=C\C=C(C#N)C#N)c2ccccc21,inactive
19,Cc1noc(-c2ccc(Cl)cc2)c1C(=O)O/N=C(\N)c1ccc(C(C)(C)C)cc1,active: 7.08 µM
20,CCOC(=O)C(NC(=O)CC(C)C)(Nc1sc(C)c(CC)c1C#N)C(F)(F)F (configuration not stated),inactive
21,COc1ccc(-c2cnnc(N/N=C/c3ccc(O)cc3)n2)cc1,inactive
22,CCc1cccc(NC(=O)c2ccc(Cn3nc(C)cc3C)o2)c1,"inconclusive: 17.8 µM [activator, single point]"
23,Oc1ccc(/C=N/N2CCCCC2)c(O)c1O,inactive
24,O=C(NCC(=O)N1CCCC(C(F)(F)F)C1)c1ccc(Oc2ccccc2)cc1 (configuration not stated),active: 8.91 µM
25,COc1ccc(OC)c(N)c1,"inconclusive: 0.398 µM [inhibitor, partial curve, poor fit]"

# Individual results from the results shown.
# O=C1CC(NCc2ccco2)C(=O)N1CCc1ccccc1 (configuration not stated) – Potency: inactive
# COc1ccccc1-c1ccc2ncnc(NC3CC3)c2c1 – Potency: inconclusive: 12.6 µM [activator, partial curve]
# CN=CC1=C(O)CC(C)(C)CC1=O – Potency: inactive
